Test results from US20250122465A1 (priority 2023, published 2025).
At least one read-out could not be matched to a standard name with certainty.

Test system: STRAIN-1
Test: Spore activation rate by phase-contrast microscopy, STRAIN-1
Format: cell-based, Bacillus
Conditions: Example 1, individual amino acid at its Table 1 amount (0.08-500 g/L), 42° C.

CC[C@H](C)[C@H](N)C(=O)O [L-Isoleucine]
Activation Rate (%) at 1 hr.: 95 +/− 0%
Activation Rate (%) at 1 hr. (listed as L-isoleucine): 70+/−0%
